Test results published in article PMC10770727.
These are yes or no findings as the source states them, for the method shown.

Amino acid sequences for entries named in this document (tags omitted). Residues count along the entry.
UniProt P52193, residues 18-417: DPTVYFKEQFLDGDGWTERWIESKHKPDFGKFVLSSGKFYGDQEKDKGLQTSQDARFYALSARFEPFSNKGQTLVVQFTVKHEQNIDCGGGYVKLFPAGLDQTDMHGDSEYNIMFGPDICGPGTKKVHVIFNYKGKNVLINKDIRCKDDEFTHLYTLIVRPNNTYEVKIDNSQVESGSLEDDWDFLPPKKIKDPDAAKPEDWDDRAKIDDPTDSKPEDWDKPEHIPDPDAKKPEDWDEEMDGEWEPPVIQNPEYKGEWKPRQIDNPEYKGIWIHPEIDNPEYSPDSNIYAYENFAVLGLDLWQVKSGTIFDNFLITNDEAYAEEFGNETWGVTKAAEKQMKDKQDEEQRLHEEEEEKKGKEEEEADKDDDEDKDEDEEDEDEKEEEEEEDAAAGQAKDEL
UniProt P02769, residues 25-607: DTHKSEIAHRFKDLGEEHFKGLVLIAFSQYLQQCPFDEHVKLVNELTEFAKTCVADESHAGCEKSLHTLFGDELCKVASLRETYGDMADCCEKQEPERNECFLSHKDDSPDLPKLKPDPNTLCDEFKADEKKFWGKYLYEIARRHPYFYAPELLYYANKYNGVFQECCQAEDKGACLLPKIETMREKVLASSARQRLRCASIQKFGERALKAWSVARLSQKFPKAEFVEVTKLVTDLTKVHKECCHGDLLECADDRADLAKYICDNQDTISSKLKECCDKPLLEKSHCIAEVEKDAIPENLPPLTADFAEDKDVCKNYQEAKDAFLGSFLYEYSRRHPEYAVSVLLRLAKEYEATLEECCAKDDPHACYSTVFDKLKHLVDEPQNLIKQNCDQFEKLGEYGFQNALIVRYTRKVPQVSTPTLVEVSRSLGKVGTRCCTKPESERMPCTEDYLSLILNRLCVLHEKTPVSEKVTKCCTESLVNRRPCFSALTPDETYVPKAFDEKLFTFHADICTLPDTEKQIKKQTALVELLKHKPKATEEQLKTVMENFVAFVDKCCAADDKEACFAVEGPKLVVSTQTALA

Molecular target: bovine liver calreticulin (bovine) (UniProt P52193)
Assay: SPR; bovine CRT or human recombinant S100A10 amine-coupled to CM5 chips (1000 to 1300 RU), BIACORE 3000; Glu-plasminogen (0-1 uM) or 0.5 uM bovine serum albumin flowed at 50 ul/min; 25 °C; HBS-ET (10 mM Hepes pH 7.4, 150 mM NaCl, 3 mM EDTA, 0.05% Tween-20); apparent KD from steady-state affinity model; both purified

binding: no binding (tested: 500 nM)
Substance: bovine serum albumin (from UniProt P02769 25-607)
